Protein sequences, listed by entry. Tags and fused reporters are not part of them.
UniProt Q03640: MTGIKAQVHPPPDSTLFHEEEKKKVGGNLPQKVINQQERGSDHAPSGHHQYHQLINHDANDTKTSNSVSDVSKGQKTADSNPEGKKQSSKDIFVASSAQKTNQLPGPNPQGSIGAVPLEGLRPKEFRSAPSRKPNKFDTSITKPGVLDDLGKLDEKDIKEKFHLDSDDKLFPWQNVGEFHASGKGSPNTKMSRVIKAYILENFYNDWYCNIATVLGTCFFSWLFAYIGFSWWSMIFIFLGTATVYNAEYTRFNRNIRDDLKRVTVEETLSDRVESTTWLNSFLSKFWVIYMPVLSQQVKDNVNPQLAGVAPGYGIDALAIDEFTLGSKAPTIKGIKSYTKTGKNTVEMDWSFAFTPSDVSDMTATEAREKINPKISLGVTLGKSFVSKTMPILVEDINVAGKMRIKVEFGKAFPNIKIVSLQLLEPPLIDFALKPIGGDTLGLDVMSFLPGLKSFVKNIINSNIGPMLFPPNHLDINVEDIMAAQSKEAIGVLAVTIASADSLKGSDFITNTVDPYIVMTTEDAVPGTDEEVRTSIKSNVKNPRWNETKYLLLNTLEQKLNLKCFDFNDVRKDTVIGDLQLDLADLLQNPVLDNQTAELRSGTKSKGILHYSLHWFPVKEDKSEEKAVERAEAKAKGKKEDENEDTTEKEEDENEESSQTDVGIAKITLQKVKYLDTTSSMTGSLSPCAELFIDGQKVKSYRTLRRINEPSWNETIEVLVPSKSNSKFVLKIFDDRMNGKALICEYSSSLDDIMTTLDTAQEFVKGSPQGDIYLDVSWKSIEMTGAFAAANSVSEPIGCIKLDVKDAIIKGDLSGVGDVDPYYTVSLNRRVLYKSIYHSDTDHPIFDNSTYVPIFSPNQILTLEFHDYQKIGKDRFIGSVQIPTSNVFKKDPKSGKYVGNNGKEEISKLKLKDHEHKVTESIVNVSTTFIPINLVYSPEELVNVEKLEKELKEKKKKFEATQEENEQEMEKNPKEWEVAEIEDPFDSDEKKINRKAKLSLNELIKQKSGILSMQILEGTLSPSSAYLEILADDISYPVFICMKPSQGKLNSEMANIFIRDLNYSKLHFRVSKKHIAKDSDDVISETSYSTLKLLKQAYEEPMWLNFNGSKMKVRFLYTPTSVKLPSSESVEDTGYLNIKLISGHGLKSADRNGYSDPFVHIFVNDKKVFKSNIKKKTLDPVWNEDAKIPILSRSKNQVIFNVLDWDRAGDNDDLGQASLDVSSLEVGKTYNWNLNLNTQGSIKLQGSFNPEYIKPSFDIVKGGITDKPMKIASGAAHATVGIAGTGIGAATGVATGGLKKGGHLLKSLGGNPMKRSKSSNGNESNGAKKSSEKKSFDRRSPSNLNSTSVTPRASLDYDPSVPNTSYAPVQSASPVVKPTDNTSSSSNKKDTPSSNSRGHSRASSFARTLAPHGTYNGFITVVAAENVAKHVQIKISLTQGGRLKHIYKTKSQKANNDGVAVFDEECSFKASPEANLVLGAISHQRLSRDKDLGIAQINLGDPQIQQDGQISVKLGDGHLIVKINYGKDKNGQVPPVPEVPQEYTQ
UniProt P23291: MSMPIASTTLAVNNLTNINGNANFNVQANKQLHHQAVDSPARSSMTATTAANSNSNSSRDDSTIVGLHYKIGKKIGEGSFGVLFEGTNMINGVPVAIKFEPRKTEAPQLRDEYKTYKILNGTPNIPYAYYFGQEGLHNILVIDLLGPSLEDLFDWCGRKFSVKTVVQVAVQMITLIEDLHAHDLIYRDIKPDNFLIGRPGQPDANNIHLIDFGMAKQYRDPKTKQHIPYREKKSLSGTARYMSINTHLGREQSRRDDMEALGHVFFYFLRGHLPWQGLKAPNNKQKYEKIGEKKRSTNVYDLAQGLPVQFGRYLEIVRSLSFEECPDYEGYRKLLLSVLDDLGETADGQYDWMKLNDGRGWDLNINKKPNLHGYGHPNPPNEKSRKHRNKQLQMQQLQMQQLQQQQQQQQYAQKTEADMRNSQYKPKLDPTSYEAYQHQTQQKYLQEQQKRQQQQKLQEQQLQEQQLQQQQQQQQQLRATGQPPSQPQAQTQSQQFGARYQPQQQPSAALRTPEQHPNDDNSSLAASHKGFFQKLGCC
UniProt P29311: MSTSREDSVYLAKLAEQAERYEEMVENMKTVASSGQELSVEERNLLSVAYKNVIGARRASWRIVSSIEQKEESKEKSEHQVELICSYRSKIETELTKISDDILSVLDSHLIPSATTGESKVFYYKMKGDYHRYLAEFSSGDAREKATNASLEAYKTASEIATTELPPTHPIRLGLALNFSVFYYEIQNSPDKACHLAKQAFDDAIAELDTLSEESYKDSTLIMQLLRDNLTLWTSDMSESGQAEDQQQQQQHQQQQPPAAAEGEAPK
UniProt P23292: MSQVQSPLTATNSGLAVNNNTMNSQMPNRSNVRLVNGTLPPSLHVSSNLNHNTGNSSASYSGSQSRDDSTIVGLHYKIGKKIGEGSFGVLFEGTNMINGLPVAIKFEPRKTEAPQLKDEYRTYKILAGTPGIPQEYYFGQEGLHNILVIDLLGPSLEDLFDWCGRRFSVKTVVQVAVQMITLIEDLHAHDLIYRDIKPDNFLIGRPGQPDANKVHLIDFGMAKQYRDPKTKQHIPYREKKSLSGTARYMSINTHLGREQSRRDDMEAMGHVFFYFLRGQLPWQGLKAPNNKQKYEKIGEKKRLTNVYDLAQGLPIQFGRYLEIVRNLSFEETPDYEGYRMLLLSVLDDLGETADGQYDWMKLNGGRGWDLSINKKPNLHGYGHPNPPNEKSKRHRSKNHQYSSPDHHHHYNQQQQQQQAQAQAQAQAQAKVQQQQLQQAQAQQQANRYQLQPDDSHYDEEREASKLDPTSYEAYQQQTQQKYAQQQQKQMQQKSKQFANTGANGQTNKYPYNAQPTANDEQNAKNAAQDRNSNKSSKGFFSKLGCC

According to publication PMC7466973:

T1: Wsc3p-GFP (S. cerevisiae) (UniProt Q12215)
T1 sequence: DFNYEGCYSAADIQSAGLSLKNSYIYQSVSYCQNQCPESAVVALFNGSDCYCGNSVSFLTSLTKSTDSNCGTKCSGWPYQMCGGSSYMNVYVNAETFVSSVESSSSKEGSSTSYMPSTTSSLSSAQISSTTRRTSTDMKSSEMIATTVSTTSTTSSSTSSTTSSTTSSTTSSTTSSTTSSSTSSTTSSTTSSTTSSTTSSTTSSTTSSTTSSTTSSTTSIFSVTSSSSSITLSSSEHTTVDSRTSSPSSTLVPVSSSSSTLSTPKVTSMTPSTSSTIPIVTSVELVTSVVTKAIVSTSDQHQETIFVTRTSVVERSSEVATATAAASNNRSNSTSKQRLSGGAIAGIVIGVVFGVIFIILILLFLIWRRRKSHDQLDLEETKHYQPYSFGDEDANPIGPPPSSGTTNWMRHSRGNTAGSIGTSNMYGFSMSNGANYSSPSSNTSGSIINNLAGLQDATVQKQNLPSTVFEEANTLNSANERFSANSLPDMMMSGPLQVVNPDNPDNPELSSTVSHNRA

T2: Wsc2p-GFP (S. cerevisiae) (UniProt P53832)
T2 sequence: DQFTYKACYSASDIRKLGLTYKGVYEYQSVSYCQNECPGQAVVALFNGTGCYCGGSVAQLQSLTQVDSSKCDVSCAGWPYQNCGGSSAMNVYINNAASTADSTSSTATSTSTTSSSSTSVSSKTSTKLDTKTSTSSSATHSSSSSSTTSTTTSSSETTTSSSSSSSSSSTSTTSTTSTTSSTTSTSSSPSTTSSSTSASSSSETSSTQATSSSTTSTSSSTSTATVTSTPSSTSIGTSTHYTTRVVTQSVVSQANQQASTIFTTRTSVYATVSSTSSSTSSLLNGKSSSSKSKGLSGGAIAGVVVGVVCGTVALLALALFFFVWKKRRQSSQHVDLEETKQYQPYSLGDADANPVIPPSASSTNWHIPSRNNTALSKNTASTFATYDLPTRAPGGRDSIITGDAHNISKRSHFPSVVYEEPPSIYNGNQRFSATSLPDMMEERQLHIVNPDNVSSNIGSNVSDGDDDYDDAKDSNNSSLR


Columns and labels:
[1] = biological target: T1, Wsc3p-GFP (S. cerevisiae); assay: affinity purification with mass spectrometry; IP-MS of endogenously expressed GFP-tagged baits from total yeast protein extracts; lysate cross-linked with 1 mM DSP on ice, 1% digitonin, capture on uMACS microbeads and MACS columns, on-bead trypsin digestion, Orbitrap Elite; untagged BY4742 as control; valid with two or more unique peptides of >=95% probability
[2] = biological target: T2, Wsc2p-GFP (S. cerevisiae); assay: as above

| Molecule | binding [1] | binding [2] |
| --- | --- | --- |
| Tcb3p (endogenous) (from UniProt Q03640 1-1545) | binds | binds |
| Yck1p (endogenous) (from UniProt P23291 1-538) | binds | binds |
| Hek2p (endogenous) (protein, UniProt P38199 1-381) MSQFFEAATPVAIPTNNTNGGSSDAGSAATGGAPVVGTTAQPTINHRLLLSLKEAAKIIGTKGSTISRIRAANAVKIGISEKVPGCSDRILSCAGNVINVANAIGDIVDVLNKRNPENEDAAEGEAEEHYYFHFLNHILPAPSKDEIRDLQQLEDIGYVRLIVANSHISSIIGKAGATIKSLINKHGVKIVASKDFLPASDERIIEIQGFPGSITNVLIEISEIILSDVDVRFSTERSYFPHLKKSSGEPTSPSTSSNTRIELKIPELYVGAIIGRGMNRIKNLKTFTKTNIVVERKDDDDKDENFRKFIITSKFPKNVKLAESMLLKNLNTEIEKRENYKRKLEAAEGDATVVTERSDSASFLEEKEEPQENHDNKEEQS | – | binds |
| Ras2p (endogenous) (protein, UniProt P01120 1-322) MPLNKSNIREYKLVVVGGGGVGKSALTIQLTQSHFVDEYDPTIEDSYRKQVVIDDEVSILDILDTAGQEEYSAMREQYMRNGEGFLLVYSITSKSSLDELMTYYQQILRVKDTDYVPIVVVGNKSDLENEKQVSYQDGLNMAKQMNAPFLETSAKQAINVEEAFYTLARLVRDEGGKYNKTLTENDNSKQTSQDTKGSGANSVPRNSGGHRKMSNAANGKNVNSSTTVVNARNASIESKTGLAGNQATNGKTQTDRTNIDNSTGQAGQANAQSANTVNNRVNNNSKAGQVSNAKQARKQQAAPGGNTSEASKSGSGGCCIIS | binds | binds |

Next, values leading:

| binding [1] | binding [2] | Molecule |
| --- | --- | --- |
| binds | – | Bmh1p (endogenous) (from UniProt P29311 1-267) |
| – | binds | Yck2p (endogenous) (from UniProt P23292 1-546) |

Results are given in words; binding and its absence hold for the method and conditions named. In cells and extracts the contact can be indirect. A yes stands for co-enrichment or nearness to the bait. Other partners may have been found. Sequences can lack the tags named with a protein.
